{"sequences": {"note": "The chains behind the UniProt entries cited, without tags or fusion partners. Residues count along the entry.", "UniProt P35968, residues 20-1356": "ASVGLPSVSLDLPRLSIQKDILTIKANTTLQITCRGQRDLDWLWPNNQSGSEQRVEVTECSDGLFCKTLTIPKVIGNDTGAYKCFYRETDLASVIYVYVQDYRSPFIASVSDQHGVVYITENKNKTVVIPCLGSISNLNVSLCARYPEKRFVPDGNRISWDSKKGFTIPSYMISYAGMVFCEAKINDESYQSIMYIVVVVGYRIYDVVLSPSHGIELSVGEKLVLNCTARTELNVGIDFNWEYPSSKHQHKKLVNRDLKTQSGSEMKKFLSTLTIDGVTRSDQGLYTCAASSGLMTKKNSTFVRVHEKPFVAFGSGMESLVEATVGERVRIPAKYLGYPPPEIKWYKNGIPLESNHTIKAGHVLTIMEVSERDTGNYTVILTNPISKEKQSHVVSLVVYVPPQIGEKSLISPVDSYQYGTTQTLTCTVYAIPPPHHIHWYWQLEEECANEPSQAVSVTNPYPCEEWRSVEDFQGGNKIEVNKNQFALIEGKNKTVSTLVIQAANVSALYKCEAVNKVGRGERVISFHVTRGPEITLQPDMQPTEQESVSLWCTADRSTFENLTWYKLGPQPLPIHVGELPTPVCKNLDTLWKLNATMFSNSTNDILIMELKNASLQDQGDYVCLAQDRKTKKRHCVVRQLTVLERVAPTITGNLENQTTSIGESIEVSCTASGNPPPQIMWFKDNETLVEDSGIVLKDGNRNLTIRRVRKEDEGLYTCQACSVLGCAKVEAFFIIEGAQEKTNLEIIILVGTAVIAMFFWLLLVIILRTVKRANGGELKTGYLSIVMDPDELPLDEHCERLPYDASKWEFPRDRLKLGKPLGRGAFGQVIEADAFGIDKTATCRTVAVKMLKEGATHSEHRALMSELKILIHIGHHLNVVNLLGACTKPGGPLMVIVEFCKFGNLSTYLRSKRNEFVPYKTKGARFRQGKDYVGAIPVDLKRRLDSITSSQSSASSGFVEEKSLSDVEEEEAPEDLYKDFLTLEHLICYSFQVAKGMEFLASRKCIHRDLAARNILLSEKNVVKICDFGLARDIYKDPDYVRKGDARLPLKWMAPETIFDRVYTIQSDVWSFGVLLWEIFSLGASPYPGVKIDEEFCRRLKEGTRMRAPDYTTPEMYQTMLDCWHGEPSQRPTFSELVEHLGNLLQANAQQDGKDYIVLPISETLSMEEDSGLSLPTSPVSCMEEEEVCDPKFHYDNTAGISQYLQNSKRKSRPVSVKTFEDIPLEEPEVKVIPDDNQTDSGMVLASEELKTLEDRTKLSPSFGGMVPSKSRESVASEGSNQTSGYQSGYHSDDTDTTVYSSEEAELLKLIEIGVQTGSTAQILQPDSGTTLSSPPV"}, "source": "patent US20190127454A1", "about": "(ACADEMIA SINICA, published 2019)", "binders": {"B1": {"name": "human SCUBE2 (Signal peptide-CUB-EGF domain-containing protein 2) (receptor)", "chain": "RAAGPQEDVDECAQGLDDCHADALCQNTPTSYKCSCKPGYQGEGRQCEDIDECGNELNGGCVHDCLNIPGNYRCTCFDGFMLAHDGHNCLDVDECLENNGGCQHTCVNVMGSYECCCKEGFFLSDNQHTCIHRSEEGLSCMNKDHGCSHICKEAPRGSVACECRPGFELAKNQRDCILTCNHGNGGCQHSCDDTADGPECSCHPQYKMHTDGRSCLEREDTVLEVTESNTTSVVDGDKRVKRRLLMETCAVNNGGCDRTCKDTSTGVHCSCPVGFTLQLDGKTCKDIDECQTRNGGCDHFCKNIVGSFDCGCKKGFKLLTDEKSCQDVDECSLDRTCDHSCINHPGTFACACNRGYTLYGFTHCGDTNECSINNGGCQQVCVNTVGSYECQCHPGYKLHWNKKDCVEVKGLLPTSVSPRVSLHCGKSGGGDGCFLRCHSGIHLSSGLQGAYSVTCGSSSPLRNKQQKSNDSAFGDVTTIRTSVTFKLNEGKCSLKNAELFPEGLRPALPEKHSSVKESFRYVNLTCSSGKQVPGAPGRPSTPKEMFITVEFELETNQKEVTASCDLSCIVKRTEKRLRKAIRTLRKAVHREQFHLQLSGMNLDVAKKPPRTSERQAESCGVGQGHAENQCVSCRAGTYYDGARERCILCPNGTFQNEEGQMTCEPCPRPGNSGALKTPEAWNMSECGGLCQPGEYSADGFAPCQLCALGTFQPEAGRTSCFPCGGGLATKHQGATSFQDCETRVQCSPGHFYNTTTHRCIRCPVGTYQPEFGKNNCVSCPGNTTTDFDGSTNITQCKNRRCGGELGDFTGYIESPNYPGNYPANTECTWTINPPPKRRILIVVPEIFLPIEDDCGDYLVMRKTSSSNSVTTYETCQTYERPIAFTSRSKKLWIQFKSNEGNSARGFQVPYVTYDEDYQELIEDIVRDGRLYASENHQEILKDKKLIKALFDVLAHPQNYFKYTAQESREMFPRSFIRLLRSKVSRFLRPYK", "notes": "Signal peptide a.a; 1-37 and mature protein a.a; also GST.SCUBE2-CUB); also called FLAG.SCUBE2-FL; FLAG-tagged SCUBE2"}}, "target": "vascular endothelial growth factor receptor 2 (VEGFR2) (human) (UniProt P35968)", "assay": "confocal co-localisation and co-immunoprecipitation in HUVECs; also co-immunoprecipitation from transfected HEK-293T cells", "note": "Results are given in words; binding and its absence hold for the method and conditions named. Binding seen in cells or lysates may run through a third protein. Some entries that bind do so weakly or less than the wild type."}
{"binder": "B1", "values": [{"measurement": "binding", "result": "binds"}]}
